Measured values published in patent publication US7238857.

Amino acid sequences for entries named in this document (tags omitted). A change or cut given only in a name is not applied to a line headed by its entry.
UniProt Q40476: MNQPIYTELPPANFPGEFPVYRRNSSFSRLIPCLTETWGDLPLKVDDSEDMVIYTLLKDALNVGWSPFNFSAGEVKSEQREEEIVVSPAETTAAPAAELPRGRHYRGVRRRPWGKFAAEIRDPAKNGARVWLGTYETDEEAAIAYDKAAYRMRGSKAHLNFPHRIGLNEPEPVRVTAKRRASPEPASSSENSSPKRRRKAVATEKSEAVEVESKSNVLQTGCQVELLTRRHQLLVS
UniProt Q40479: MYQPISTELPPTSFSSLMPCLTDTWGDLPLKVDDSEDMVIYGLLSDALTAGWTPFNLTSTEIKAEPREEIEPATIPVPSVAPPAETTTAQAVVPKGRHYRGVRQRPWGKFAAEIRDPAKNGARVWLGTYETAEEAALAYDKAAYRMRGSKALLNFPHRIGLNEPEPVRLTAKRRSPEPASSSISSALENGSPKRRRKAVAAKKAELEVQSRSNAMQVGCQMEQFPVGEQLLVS
UniProt Q40477: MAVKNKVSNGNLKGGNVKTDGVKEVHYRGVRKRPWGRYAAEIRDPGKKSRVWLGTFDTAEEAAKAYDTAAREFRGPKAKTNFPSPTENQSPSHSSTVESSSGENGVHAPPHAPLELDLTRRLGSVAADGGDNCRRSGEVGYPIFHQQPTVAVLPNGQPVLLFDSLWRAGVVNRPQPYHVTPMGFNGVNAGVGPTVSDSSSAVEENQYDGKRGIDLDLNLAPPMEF
UniProt Q40478: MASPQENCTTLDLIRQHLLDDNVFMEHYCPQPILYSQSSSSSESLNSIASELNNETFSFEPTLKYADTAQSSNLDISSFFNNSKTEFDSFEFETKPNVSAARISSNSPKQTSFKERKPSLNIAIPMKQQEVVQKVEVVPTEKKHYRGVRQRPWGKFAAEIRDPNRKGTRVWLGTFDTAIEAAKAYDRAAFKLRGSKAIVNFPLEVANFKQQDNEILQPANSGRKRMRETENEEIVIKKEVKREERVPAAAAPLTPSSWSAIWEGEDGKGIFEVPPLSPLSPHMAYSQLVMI

Legend:
Assay in all cases: activity assay
ERF1 (Nicotiana tabacum) = ERF1 (Nicotiana tabacum) (UniProt Q40476); settings: no effect on in vitro transcription from pmERE; purified recombinant protein; protein details: His tag (pET15b, Novagen); variant of ERE (2x GCC box)
ERF2 (Nicotiana tabacum) = ERF2 (Nicotiana tabacum) (UniProt Q40479); settings: no amplification of in vitro transcription from pmERE; purified recombinant protein; protein details: His tag (pET15b, Novagen); variant of ERE (2x GCC box)
ERF3 (Nicotiana tabacum) = ERF3 (Nicotiana tabacum) (UniProt Q40477); settings: no effect on in vitro transcription from pmERE; purified recombinant protein; protein details: His tag (pET15b, Novagen); variant of ERE (2x GCC box)
ERF4 (Nicotiana tabacum) = ERF4 (Nicotiana tabacum) (UniProt Q40478); settings: no effect on in vitro transcription from pmERE; purified recombinant protein; protein details: His tag (pET15b, Novagen); variant of ERE (2x GCC box)

Measured: activity on this sequence

GATCTCATAAGATCCTCCACTAAAATAAGACCGATCAAATAAGATCCTCCATG / GATCCATGGAGGATCTTATTTGATCGGTCTTATTTTAGTGGAGGATCTTATGA [mERE (mutant GCC box)]
not active: ERF1 (Nicotiana tabacum) | ERF2 (Nicotiana tabacum) | ERF3 (Nicotiana tabacum) | ERF4 (Nicotiana tabacum)

Negatives hold for the conditions tested.
